PubChem BioAssay AID1259405 – NCATS | 2018

Screen: 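Knock-downs that lift recombinant protein yield in hamster ovary cells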 (primary screen)
Cells: Chinese hamster CHO-K1 ovary cells with stable secreted eGFP expression
Reagents: single siRNA against mouse genes, 0.8 pmol siRNA per well (2 µl of 400 nM stock)
Duration: 3 days
Read-out: 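Percent of the per-plate non-targeting control median for intracellular GFP per well by laser scanning cytometry and for cell viability by ATP luminescence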
Scale: GFP, % of control: higher = more GFP per well, higher productivity; viability (ATP), % of control: higher = more viable cells (more ATP)
Call rule: 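Called active when intracellular GFP, relative to negative control, is at or above 120%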
The whole screen tested about 50,000 reagents; below is a random part of them. In the full data, about 4,000 (8%) got an active call. 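Mouse siRNA library applied to hamster cells; one well for each siRNA.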 Reagents against one gene are numbered here.

With knock-down of Washc2 (WASH complex subunit 2) #1, the screen gave GFP, % of control 69; viability (ATP), % of control 82.1; inactive. Knock-down of Washc2 (WASH complex subunit 2) #2 gave: GFP, % of control 73.8; viability (ATP), % of control 69.7; inactive. After knock-down of Washc2 (WASH complex subunit 2) #3, the screen gave GFP, % of control 58.3; viability (ATP), % of control 30.4; inactive. With knock-down of Pcdh10 (protocadherin 10) #1 the results were GFP, % of control 105; viability (ATP), % of control 76.6; inactive. Silencing of Pcdh10 (protocadherin 10) #2 came out at: GFP, % of control 63.3; viability (ATP), % of control 75.4; inactive. Pcdh10 (protocadherin 10) #3 scored GFP, % of control 70.2; viability (ATP), % of control 76.2; inactive.

Depletion of Rnase2a #1 resulted in: GFP, % of control 59.8; viability (ATP), % of control 43.9; inactive. Against Rnase2a #2, the entry reads GFP, % of control 59.9; viability (ATP), % of control 77.3; inactive. Rnase2a #3 scored GFP, % of control 100; viability (ATP), % of control 104; inactive. After knock-down of Mrpl9 (mitochondrial ribosomal protein L9) #1, the screen gave GFP, % of control 62.5; viability (ATP), % of control 65.8; inactive. Mrpl9 (mitochondrial ribosomal protein L9) #2 scored GFP, % of control 75.7; viability (ATP), % of control 56.6; inactive. Silencing of Mrpl9 (mitochondrial ribosomal protein L9) #3 came out at: GFP, % of control 52.6; viability (ATP), % of control 63.8; inactive.

For Cklf (chemokine-like factor) #1, the values are GFP, % of control 68.4; viability (ATP), % of control 78.2; inactive. Depletion of Cklf (chemokine-like factor) #2 resulted in: GFP, % of control 107; viability (ATP), % of control 90.4; inactive. Cklf (chemokine-like factor) #3 showed GFP, % of control 84.8; viability (ATP), % of control 97.9; inactive. After knock-down of Rassf2 (Ras association (RalGDS/AF-6) domain family member 2) #1 the results were GFP, % of control 113; viability (ATP), % of control 76.5; inactive. For Rassf2 (Ras association (RalGDS/AF-6) domain family member 2) #2, the entry reads GFP, % of control 95.8; viability (ATP), % of control 82.9; inactive. After knock-down of Rassf2 (Ras association (RalGDS/AF-6) domain family member 2) #3 the results were GFP, % of control 60.5; viability (ATP), % of control 56.4; inactive.

For C1rl (complement component 1, r subcomponent-like) #1, the entry reads GFP, % of control 61.2; viability (ATP), % of control 62.1; inactive. For C1rl (complement component 1, r subcomponent-like) #2 the deposit lists GFP, % of control 142; viability (ATP), % of control 30; active. Silencing of C1rl (complement component 1, r subcomponent-like) #3 gave: GFP, % of control 78; viability (ATP), % of control 68.4; inactive. With knock-down of Mdh2 (malate dehydrogenase 2, NAD (mitochondrial)) #1 the results were GFP, % of control 63.2; viability (ATP), % of control 86.4; inactive. For Mdh2 (malate dehydrogenase 2, NAD (mitochondrial)) #2, the entry reads GFP, % of control 75; viability (ATP), % of control 71.5; inactive. Against Mdh2 (malate dehydrogenase 2, NAD (mitochondrial)) #3, the entry reads GFP, % of control 83.6; viability (ATP), % of control 127; inactive.

Actl9 (actin-like 9) #1 showed GFP, % of control 94.9; viability (ATP), % of control 73.4; inactive. Knock-down of Actl9 (actin-like 9) #2 resulted in: GFP, % of control 86.6; viability (ATP), % of control 104; inactive. Knock-down of Actl9 (actin-like 9) #3 gave: GFP, % of control 50; viability (ATP), % of control 54.6; inactive. Against Or4d2 (olfactory receptor family 4 subfamily D member 2) #1, the entry reads GFP, % of control 93.9; viability (ATP), % of control 53.6; inactive. Knock-down of Or4d2 (olfactory receptor family 4 subfamily D member 2) #2 gave: GFP, % of control 108; viability (ATP), % of control 55.8; inactive. Or4d2 (olfactory receptor family 4 subfamily D member 2) #3 gave GFP, % of control 40.3; viability (ATP), % of control 115; inactive.

Silencing of Pla2g12a (phospholipase A2, group XIIA) #1 gave: GFP, % of control 69.8; viability (ATP), % of control 58.8; inactive. After knock-down of Pla2g12a (phospholipase A2, group XIIA) #2, the record shows GFP, % of control 62; viability (ATP), % of control 60.8; inactive. Silencing of Kif1c (kinesin family member 1C) #1 came out at: GFP, % of control 45.4; viability (ATP), % of control 36.7; inactive. Against Kif1c (kinesin family member 1C) #2, the values are GFP, % of control 86.7; viability (ATP), % of control 117; inactive. With knock-down of Dpep2 (dipeptidase 2) #1 the results were GFP, % of control 71.8; viability (ATP), % of control 67.5; inactive. Against Dpep2 (dipeptidase 2) #2, the values are GFP, % of control 98.8; viability (ATP), % of control 89.3; inactive.

With knock-down of Dpep2 (dipeptidase 2) #3, the screen gave GFP, % of control 136; viability (ATP), % of control 118; active. Alg1 (ALG1 chitobiosyldiphosphodolichol beta-mannosyltransferase) #1 showed GFP, % of control 152; viability (ATP), % of control 112; active. Alg1 (ALG1 chitobiosyldiphosphodolichol beta-mannosyltransferase) #2 showed GFP, % of control 70.8; viability (ATP), % of control 80.8; inactive. Knock-down of Alg1 (ALG1 chitobiosyldiphosphodolichol beta-mannosyltransferase) #3 gave: GFP, % of control 139; viability (ATP), % of control 103; active.

Entries listed above marked active:
C1rl (complement component 1, r subcomponent-like) #2 | GFP, % of control: 142; viability (ATP), % of control: 30; Outcome: active
Dpep2 (dipeptidase 2) #3 | GFP, % of control: 136; viability (ATP), % of control: 118; Outcome: active
Alg1 (ALG1 chitobiosyldiphosphodolichol beta-mannosyltransferase) #1 | GFP, % of control: 152; viability (ATP), % of control: 112; Outcome: active
Alg1 (ALG1 chitobiosyldiphosphodolichol beta-mannosyltransferase) #3 | GFP, % of control: 139; viability (ATP), % of control: 103; Outcome: active
